In the supplement of paper PMC10849652:
This is one part of the list.

Protein sequences, listed by entry. Tags and fused reporters are not part of them. Lines headed by an entry give the natural chain unless they say otherwise; changes in a name come on top.
UniProt Q02094: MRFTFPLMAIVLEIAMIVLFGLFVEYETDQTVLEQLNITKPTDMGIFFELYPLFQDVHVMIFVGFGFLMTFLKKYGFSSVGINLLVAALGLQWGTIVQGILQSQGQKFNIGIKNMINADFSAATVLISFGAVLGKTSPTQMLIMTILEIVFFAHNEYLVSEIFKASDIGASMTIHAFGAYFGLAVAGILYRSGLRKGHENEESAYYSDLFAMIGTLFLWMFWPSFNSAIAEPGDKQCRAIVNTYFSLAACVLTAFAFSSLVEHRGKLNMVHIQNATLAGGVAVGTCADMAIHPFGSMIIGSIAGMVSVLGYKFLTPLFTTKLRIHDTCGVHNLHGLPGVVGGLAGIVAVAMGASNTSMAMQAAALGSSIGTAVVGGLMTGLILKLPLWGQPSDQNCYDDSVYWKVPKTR
UniProt Q8WZ73: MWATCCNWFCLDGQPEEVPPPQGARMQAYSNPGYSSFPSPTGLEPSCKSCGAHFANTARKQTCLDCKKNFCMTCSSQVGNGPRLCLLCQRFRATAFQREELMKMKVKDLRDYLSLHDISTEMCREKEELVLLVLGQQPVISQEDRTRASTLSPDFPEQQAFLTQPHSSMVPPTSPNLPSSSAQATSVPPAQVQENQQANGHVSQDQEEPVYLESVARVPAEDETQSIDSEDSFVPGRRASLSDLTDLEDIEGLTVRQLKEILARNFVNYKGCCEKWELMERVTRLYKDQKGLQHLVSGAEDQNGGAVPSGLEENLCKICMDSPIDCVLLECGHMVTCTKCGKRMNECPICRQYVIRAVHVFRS
UniProt Q6JBY9, whole entry, looked up: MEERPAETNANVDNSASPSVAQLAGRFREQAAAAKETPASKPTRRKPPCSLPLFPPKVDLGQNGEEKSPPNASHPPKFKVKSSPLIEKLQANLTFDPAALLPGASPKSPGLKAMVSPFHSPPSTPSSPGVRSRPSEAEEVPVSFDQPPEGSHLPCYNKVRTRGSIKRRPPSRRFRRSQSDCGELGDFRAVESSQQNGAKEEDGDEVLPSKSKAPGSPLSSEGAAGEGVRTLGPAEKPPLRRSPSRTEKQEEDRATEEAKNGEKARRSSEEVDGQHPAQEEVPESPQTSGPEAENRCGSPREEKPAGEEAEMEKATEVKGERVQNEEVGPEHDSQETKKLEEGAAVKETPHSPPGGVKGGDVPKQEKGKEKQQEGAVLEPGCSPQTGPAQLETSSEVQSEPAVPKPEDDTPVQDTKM
UniProt Q15293: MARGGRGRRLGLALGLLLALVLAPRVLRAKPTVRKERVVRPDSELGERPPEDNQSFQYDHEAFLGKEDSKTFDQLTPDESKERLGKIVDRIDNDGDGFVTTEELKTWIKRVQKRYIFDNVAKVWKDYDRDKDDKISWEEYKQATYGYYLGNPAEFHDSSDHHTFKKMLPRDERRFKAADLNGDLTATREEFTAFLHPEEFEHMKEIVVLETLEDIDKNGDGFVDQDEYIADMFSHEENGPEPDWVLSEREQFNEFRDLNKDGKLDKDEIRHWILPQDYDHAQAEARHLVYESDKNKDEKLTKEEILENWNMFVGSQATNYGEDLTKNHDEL
UniProt Q8IXI1, whole entry, looked up: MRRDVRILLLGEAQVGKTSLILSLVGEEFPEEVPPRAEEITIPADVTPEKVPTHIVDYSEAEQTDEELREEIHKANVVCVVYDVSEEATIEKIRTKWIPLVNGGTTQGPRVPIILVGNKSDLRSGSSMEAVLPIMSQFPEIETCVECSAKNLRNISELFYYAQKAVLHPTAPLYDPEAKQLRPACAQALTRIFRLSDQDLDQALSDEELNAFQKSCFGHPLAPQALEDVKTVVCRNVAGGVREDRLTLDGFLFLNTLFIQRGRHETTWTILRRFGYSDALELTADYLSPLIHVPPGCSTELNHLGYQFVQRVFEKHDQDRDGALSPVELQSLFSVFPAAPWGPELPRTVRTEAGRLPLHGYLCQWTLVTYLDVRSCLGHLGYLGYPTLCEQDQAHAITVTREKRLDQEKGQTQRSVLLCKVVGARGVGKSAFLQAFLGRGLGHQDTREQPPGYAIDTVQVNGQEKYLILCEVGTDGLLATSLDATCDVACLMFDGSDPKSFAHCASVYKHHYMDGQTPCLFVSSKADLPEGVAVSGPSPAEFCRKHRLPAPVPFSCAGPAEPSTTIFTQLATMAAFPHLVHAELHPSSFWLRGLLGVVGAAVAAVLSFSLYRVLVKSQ
UniProt Q9BRS2: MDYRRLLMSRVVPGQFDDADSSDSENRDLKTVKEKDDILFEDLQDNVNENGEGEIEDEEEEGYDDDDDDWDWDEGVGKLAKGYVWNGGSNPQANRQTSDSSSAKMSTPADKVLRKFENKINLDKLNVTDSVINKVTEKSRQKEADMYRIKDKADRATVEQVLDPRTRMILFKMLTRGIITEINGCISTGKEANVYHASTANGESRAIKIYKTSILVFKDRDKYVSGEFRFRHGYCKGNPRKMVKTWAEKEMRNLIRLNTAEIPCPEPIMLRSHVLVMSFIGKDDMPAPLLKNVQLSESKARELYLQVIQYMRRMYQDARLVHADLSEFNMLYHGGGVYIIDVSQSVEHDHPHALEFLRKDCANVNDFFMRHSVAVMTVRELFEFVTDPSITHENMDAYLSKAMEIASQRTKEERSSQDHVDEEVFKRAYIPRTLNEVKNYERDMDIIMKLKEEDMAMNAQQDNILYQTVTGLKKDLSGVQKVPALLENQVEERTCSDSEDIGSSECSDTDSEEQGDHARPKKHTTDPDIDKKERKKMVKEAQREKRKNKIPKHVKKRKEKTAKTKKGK
UniProt O15258: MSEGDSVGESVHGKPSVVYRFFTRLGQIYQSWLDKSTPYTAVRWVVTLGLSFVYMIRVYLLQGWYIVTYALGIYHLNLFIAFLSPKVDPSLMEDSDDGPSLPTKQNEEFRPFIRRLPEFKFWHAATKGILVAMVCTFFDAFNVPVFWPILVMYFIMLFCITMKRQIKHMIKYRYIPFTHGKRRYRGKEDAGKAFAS
UniProt Q96DB5: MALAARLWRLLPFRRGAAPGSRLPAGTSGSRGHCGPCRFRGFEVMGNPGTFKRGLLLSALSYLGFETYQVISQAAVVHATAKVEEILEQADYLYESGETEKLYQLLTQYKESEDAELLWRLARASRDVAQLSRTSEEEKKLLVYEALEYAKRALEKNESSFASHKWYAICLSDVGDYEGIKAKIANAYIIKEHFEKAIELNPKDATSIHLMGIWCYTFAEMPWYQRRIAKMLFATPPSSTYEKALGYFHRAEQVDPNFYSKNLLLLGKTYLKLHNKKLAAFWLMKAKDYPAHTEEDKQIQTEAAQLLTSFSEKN
UniProt Q14257: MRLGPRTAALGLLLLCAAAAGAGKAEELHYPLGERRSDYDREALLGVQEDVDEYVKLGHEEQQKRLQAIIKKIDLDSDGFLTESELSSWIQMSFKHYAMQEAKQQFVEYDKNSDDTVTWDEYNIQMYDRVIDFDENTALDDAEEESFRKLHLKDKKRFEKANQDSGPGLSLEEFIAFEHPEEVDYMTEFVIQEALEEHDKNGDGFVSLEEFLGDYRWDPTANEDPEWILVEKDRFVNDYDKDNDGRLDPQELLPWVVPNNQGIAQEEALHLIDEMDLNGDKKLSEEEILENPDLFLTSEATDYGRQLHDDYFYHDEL
UniProt P84095: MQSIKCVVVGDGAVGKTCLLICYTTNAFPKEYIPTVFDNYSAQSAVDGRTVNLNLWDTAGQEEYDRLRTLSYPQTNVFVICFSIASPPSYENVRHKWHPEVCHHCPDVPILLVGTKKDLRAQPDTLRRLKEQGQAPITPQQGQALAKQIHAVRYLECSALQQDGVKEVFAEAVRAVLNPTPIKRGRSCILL
UniProt Q96PM5: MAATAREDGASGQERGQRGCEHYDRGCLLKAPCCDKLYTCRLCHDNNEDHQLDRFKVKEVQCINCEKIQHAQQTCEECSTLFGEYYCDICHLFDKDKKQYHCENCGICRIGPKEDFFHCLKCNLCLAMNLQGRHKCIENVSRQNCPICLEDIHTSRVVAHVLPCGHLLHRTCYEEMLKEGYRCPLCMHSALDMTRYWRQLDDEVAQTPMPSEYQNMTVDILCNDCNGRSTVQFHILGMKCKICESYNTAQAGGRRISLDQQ
UniProt Q8TAC1: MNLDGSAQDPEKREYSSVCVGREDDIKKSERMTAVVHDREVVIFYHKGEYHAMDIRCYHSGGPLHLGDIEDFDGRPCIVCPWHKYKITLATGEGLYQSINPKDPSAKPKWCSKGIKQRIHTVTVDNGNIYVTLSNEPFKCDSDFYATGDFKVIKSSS
UniProt Q8TDP1: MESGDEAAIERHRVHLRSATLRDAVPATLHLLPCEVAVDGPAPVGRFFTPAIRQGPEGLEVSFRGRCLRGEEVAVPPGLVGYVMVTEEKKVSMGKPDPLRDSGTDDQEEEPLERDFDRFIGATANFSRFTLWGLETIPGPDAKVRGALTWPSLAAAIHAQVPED
UniProt Q96HR9: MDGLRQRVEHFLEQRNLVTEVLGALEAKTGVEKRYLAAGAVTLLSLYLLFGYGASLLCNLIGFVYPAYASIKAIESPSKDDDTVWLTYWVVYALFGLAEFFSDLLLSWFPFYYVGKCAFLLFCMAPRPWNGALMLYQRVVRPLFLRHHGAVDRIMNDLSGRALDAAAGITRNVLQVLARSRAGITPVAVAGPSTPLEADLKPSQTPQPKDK
UniProt Q96AA3: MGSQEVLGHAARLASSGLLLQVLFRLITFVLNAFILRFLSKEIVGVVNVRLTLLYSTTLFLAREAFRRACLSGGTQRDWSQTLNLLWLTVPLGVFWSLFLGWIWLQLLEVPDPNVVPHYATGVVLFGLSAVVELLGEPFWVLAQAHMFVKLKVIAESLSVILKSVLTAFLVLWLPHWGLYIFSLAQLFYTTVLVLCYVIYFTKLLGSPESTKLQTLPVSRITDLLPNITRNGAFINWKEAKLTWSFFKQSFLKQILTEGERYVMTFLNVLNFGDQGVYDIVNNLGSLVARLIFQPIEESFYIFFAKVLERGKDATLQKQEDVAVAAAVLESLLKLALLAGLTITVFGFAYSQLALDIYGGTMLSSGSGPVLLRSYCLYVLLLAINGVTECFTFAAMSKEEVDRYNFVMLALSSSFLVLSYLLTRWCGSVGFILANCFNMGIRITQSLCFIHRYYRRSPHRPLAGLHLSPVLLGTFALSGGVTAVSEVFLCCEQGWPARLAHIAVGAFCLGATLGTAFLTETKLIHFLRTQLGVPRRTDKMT
UniProt Q96I51, whole entry, looked up: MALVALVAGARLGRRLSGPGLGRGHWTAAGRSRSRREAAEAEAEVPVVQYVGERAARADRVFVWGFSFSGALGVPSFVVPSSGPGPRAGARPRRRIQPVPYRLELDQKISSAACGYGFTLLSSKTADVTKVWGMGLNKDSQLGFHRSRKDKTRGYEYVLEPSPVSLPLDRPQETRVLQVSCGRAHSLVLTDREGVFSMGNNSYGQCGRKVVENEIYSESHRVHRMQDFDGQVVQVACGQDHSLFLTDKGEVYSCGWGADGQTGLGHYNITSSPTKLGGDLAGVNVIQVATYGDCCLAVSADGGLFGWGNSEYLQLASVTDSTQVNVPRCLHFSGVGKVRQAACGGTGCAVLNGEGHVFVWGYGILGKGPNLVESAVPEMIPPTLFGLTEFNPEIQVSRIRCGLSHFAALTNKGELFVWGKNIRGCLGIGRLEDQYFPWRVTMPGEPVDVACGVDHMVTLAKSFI

Assays:
Experiment in all cases: log2 fold change, soluble protein after heating vs DMSO (PISA); higher = thermal stabilisation; K562 cells, 10 uM, 30 min; active = over 0.2 and 3.5 SD of the protein, either way, in both replicates (recomputed)
saracatinib = compound: CN1CCN(CCOc2cc(OC3CCOCC3)c3c(Nc4c(Cl)ccc5c4OCO5)ncnc3c2)CC1 [saracatinib]
How it was run: (§1)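 Soluble protein was quantified by TMTpro 16plex LC-MS/MS after channel sums were equalised. It was obtained as the supernatant after 21,000xg for 90 min from pooled aliquots of K562 cells (2×10^6 cells/mL, 10 μM compound, 30 min) heated for 3 min across 48°C-58°C and extracted in PBS with 0.5% NP-40 at 4°C. Thermal stability values are relative to control samples and come from duplicates. They are given as log2 fold changes.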

sotrastaurin = compound: CN1CCN(c2nc(C3=C(c4c[nH]c5ccccc45)C(=O)NC3=O)c3ccccc3n2)CC1 [sotrastaurin]
How it was run: as §1

alvocidib = compound: CN1CC[C@H](c2c(O)cc(O)c3c(=O)cc(-c4ccccc4Cl)oc23)[C@H](O)C1 [alvocidib]
How it was run: as §1

Tubastatin A = compound: CN1CCc2c(c3ccccc3n2Cc2ccc(C(=O)NO)cc2)C1 [Tubastatin A]
How it was run: as §1

[1] = compound: CNC(=O)C1=CC=CC=C1NC2=NC(=NC=C2Cl)NC3=C(C=C(C=C3)N4CCOCC4)OC
How it was run: as §1

defactinib = compound: CNC(=O)c1ccc(Nc2ncc(C(F)(F)F)c(NCc3nccnc3N(C)S(C)(=O)=O)n2)cc1 [defactinib]
How it was run: as §1

rucaparib = compound: CNCc1ccc(-c2[nH]c3cc(F)cc4c3c2CCNC4=O)cc1 [rucaparib]
How it was run: as §1

[2] = compound: CNc1nc(-c2ccc3c(N)n[nH]c3c2)cc(N2C[C@@H](C(=O)NC3CCCCC3)CC[C@H]2C)n1
How it was run: as §1

encorafenib = compound: COC(=O)N[C@@H](C)CNc1nccc(-c2cn(C(C)C)nc2-c2cc(Cl)cc(NS(C)(=O)=O)c2F)n1 [encorafenib]
How it was run: as §1

[3] = compound: COC(=O)[C@H](CCSC)NC(=O)C1=C(C=C(C=C1)NC[C@H](CS)N)C2=CC=CC=C2
How it was run: as §1

[4] = compound: COC1=CC=C(C=C1)CN2C=CC3=C2C=C(C=C3)C(=O)NO
How it was run: as §1

filanesib = compound: CON(C)C(=O)N1N=C(c2cc(F)ccc2F)S[C@@]1(CCCN)c1ccccc1 [filanesib]
How it was run: as §1

zotarolimus = compound: CO[C@H]1C[C@@H]2CC[C@@H](C)[C@@](O)(O2)C(=O)C(=O)N2CCCC[C@H]2C(=O)O[C@H]([C@H](C)C[C@@H]2CC[C@H](n3cnnn3)[C@H](OC)C2)CC(=O)[C@H](C)/C=C(\C)[C@@H](O)[C@@H](OC)C(=O)[C@H](C)C[C@H](C)/C=C/C=C/C=C/1C [zotarolimus]
How it was run: as §1

idasanutlin = compound: COc1cc(C(=O)O)ccc1NC(=O)[C@@H]1N[C@@H](CC(C)(C)C)[C@](C#N)(c2ccc(Cl)cc2F)[C@H]1c1cccc(Cl)c1F [idasanutlin]
How it was run: as §1

alisertib = compound: COc1cc(Nc2ncc3c(n2)-c2ccc(Cl)cc2C(c2c(F)cccc2OC)=NC3)ccc1C(=O)O [alisertib]
How it was run: as §1

[5] = compound: COc1cc2nc(-c3cc(F)ccc3O)nc(N[C@@H]3CNC[C@H]3C(C)(C)O)c2cc1OC
How it was run: as §1

gefitinib = compound: COc1cc2ncnc(Nc3ccc(F)c(Cl)c3)c2cc1OCCCN1CCOCC1 [gefitinib]
How it was run: as §1

[6] = compound: COc1cccc2cc(-c3nc([C@H]4CC[C@H](C(=O)O)CC4)n4ncnc(N)c34)[nH]c12
How it was run: as §1

lapatinib = compound: CS(=O)(=O)CCNCc1ccc(-c2ccc3ncnc(Nc4ccc(OCc5cccc(F)c5)c(Cl)c4)c3c2)o1 [lapatinib]
How it was run: as §1

pictilisib = compound: CS(=O)(=O)N1CCN(Cc2cc3nc(-c4cccc5[nH]ncc45)nc(N4CCOCC4)c3s2)CC1 [pictilisib]
How it was run: as §1

Measured: log2 fold change

RHAG (UniProt Q02094)
inactive: saracatinib -0.021 | sotrastaurin -0.149 | alvocidib -0.011 | Tubastatin A 0.061 | [1] 0.07 | defactinib -0.049 | rucaparib -0.064 | [2] -0.021 | encorafenib 0.262 | [3] -0.027 | [4] 0.026 | filanesib -0.282 | zotarolimus -0.014 | idasanutlin -0.108 | alisertib 0.059 | [5] -0.21 | gefitinib -0.093 | [6] 0.085 | lapatinib 0.109 | pictilisib -0.106

RFFL (UniProt Q8WZ73)
inactive: saracatinib 0.13 | sotrastaurin -0.04 | alvocidib 0.011 | Tubastatin A -0.042 | [1] -0.087 | defactinib -0.232 | rucaparib 0.077 | [2] 0.024 | encorafenib 0.226 | [3] 0.064 | [4] 0.004 | filanesib -0.036 | zotarolimus -0.085 | idasanutlin -0.164 | alisertib 0.066 | [5] -0.061 | gefitinib 0.067 | [6] -0.139 | lapatinib 0.119

RCSD1 (UniProt Q6JBY9)
inactive: saracatinib 0.028 | sotrastaurin 0.09 | alvocidib 0.029 | Tubastatin A -0.048 | [1] 0.02 | defactinib 0.013 | rucaparib 0.001 | [2] -0.06 | encorafenib -0.017 | [3] 0.07 | [4] 0.11 | filanesib 0.065 | zotarolimus -0.08 | idasanutlin 0.027 | alisertib -0.043 | [5] -0.028 | gefitinib 0.004 | [6] 0.04 | lapatinib -0.061 | pictilisib 0.034

RCN1 (UniProt Q15293)
inactive: saracatinib -0.005 | sotrastaurin 0.042 | alvocidib 0.025 | Tubastatin A -0.01 | [1] -0.005 | defactinib -0.018 | rucaparib -0.014 | [2] -0.12 | encorafenib -0.021 | [3] 0.038 | [4] -0.051 | filanesib 0.003 | zotarolimus -0.051 | idasanutlin -0.012 | alisertib -0.002 | [5] 0.002 | gefitinib 0.014 | [6] 0.039 | lapatinib -0.036 | pictilisib -0.034

RHOT2 (UniProt Q8IXI1)
inactive: saracatinib -0.062 | sotrastaurin 0.032 | alvocidib -0.01 | Tubastatin A 0.059 | [1] -0.029 | defactinib -0.007 | rucaparib 0.024 | [2] 0.059 | encorafenib 0.076 | [3] -0.031 | [4] 0.027 | filanesib -0.007 | zotarolimus 0.053 | idasanutlin -0.017 | alisertib 0.006 | [5] 0.141 | gefitinib 0.011 | [6] -0.006 | lapatinib -0.028 | pictilisib 0.129

RIOK1 (UniProt Q9BRS2)
inactive: saracatinib 0.023 | sotrastaurin 0.043 | alvocidib 0.076 | Tubastatin A -0.022 | [1] -0.024 | defactinib 0.017 | rucaparib 0.022 | [2] -0.043 | encorafenib -0.02 | [3] 0.046 | [4] -0.036 | filanesib 0.047 | zotarolimus -0.064 | idasanutlin 0.008 | alisertib -0.041 | [5] 0.039 | gefitinib -0.002 | [6] 0.04 | lapatinib 0.006 | pictilisib 0.007

Two successive entries already listed, for reference:
RFFL (UniProt Q8WZ73)
inactive: saracatinib 0.13 | sotrastaurin -0.04 | alvocidib 0.011 | Tubastatin A -0.042 | [1] -0.087 | defactinib -0.232 | rucaparib 0.077 | [2] 0.024 | encorafenib 0.226 | [3] 0.064 | [4] 0.004 | filanesib -0.036 | zotarolimus -0.085 | idasanutlin -0.164 | alisertib 0.066 | [5] -0.061 | gefitinib 0.067 | [6] -0.139 | lapatinib 0.119

RCSD1 (UniProt Q6JBY9)
inactive: saracatinib 0.028 | sotrastaurin 0.09 | alvocidib 0.029 | Tubastatin A -0.048 | [1] 0.02 | defactinib 0.013 | rucaparib 0.001 | [2] -0.06 | encorafenib -0.017 | [3] 0.07 | [4] 0.11 | filanesib 0.065 | zotarolimus -0.08 | idasanutlin 0.027 | alisertib -0.043 | [5] -0.028 | gefitinib 0.004 | [6] 0.04 | lapatinib -0.061 | pictilisib 0.034

Continued.

RER1 (UniProt O15258)
inactive: saracatinib 0.13 | sotrastaurin 0.014 | alvocidib -0.019 | Tubastatin A -0.011 | [1] 0.036 | defactinib -0.032 | rucaparib 0.068 | [2] -0.035 | encorafenib -0.04 | [3] -0.031 | [4] 0.004 | filanesib -0.077 | zotarolimus 0.046 | idasanutlin 0.183 | alisertib 0.029 | [5] -0.05 | gefitinib -0.007 | [6] 0 | lapatinib 0.014 | pictilisib -0.192

RMDN1 (UniProt Q96DB5)
inactive: saracatinib 0.026 | sotrastaurin 0.016 | alvocidib -0.088 | Tubastatin A -0.01 | [1] 0 | defactinib -0.034 | rucaparib -0.01 | [2] -0.023 | encorafenib -0.008 | [3] -0.016 | [4] -0.009 | filanesib -0.114 | zotarolimus 0.004 | idasanutlin -0.084 | alisertib -0.018 | [5] -0.034 | gefitinib -0.001 | [6] 0.038 | lapatinib 0.064 | pictilisib 0.019

RCN2 isoform 2 (UniProt Q14257)
inactive: saracatinib 0.044 | sotrastaurin 0.012 | alvocidib 0.007 | Tubastatin A 0.006 | [1] 0.014 | defactinib 0.005 | rucaparib -0.047 | [2] -0.055 | encorafenib 0.028 | [3] 0.02 | [4] -0.04 | filanesib -0.002 | zotarolimus 0.018 | idasanutlin 0.031 | alisertib -0.043 | [5] 0.005 | gefitinib 0.017 | [6] 0.045 | lapatinib 0.025 | pictilisib 0

RHOG (UniProt P84095)
inactive: saracatinib 0.034 | sotrastaurin 0.038 | alvocidib -0.026 | Tubastatin A -0.002 | [1] -0.02 | defactinib 0.01 | rucaparib -0.043 | [2] 0.002 | encorafenib -0.038 | [3] 0.009 | [4] 0.189 | filanesib -0.034 | zotarolimus 0.029 | idasanutlin 0.033 | alisertib -0.021 | [5] 0.044 | gefitinib 0.001 | [6] 0.046 | lapatinib -0.007 | pictilisib 0

RCHY1 (UniProt Q96PM5)
inactive: saracatinib 0.083 | sotrastaurin -0.014 | alvocidib -0.083 | Tubastatin A -0.004 | [1] -0.017 | defactinib -0.111 | rucaparib 0.02 | [2] -0.05 | encorafenib -0.026 | [3] 0 | [4] 0.043 | filanesib 0.035 | zotarolimus -0.025 | idasanutlin -0.021 | alisertib -0.01 | [5] 0.021 | gefitinib -0.027 | [6] 0 | lapatinib 0.016 | pictilisib -0.021

RFESD isoform 2 (UniProt Q8TAC1)
inactive: saracatinib -0.022 | sotrastaurin -0.001 | alvocidib -0.022 | Tubastatin A 0.005 | [1] -0.095 | defactinib -0.025 | rucaparib -0.036 | [2] -0.026 | encorafenib -0.011 | [3] 0.025 | [4] 0 | filanesib 0.027 | zotarolimus -0.009 | idasanutlin -0.023 | alisertib -0.037 | [5] -0.076 | gefitinib 0.037 | [6] 0.073 | lapatinib 0.013 | pictilisib -0.007

RNASEH2C (UniProt Q8TDP1)
inactive: saracatinib -0.021 | sotrastaurin -0.111 | alvocidib -0.269 | Tubastatin A 0.107 | [1] 0.005 | defactinib -0.258 | rucaparib 0.004 | [2] 0.11 | encorafenib 0.025 | [3] -0.112 | [4] -0.016 | filanesib -0.062 | zotarolimus 0.096 | idasanutlin -0.055 | alisertib 0.024 | [5] 0.034 | gefitinib 0.046 | [6] 0.008 | lapatinib 0.003 | pictilisib 0.166

REEP6 (UniProt Q96HR9)
inactive: saracatinib -0.02 | sotrastaurin 0.046 | alvocidib -0.006 | Tubastatin A -0.052 | [1] -0.006 | defactinib 0.036 | rucaparib -0.022 | [2] -0.061 | encorafenib 0.01 | [3] -0.001 | [4] 0.075 | filanesib 0.049 | zotarolimus -0.005 | idasanutlin 0.022 | alisertib 0.021 | [5] -0.044 | gefitinib 0.032 | [6] 0.072 | lapatinib -0.018 | pictilisib 0.04

RFT1 (UniProt Q96AA3)
inactive: saracatinib 0.067 | sotrastaurin 0.052 | alvocidib 0.01 | Tubastatin A -0.003 | [1] 0.001 | defactinib -0.01 | rucaparib -0.044 | [2] -0.036 | encorafenib 0.015 | [3] 0.059 | [4] -0.096 | filanesib -0.023 | zotarolimus -0.054 | idasanutlin -0.001 | alisertib -0.04 | [5] 0.106 | gefitinib 0.033 | [6] 0.117 | lapatinib -0.099 | pictilisib 0.016

RCC1L (UniProt Q96I51)
inactive: saracatinib 0.017 | sotrastaurin -0.001 | alvocidib -0.036 | Tubastatin A -0.028 | [1] -0.022 | defactinib -0.017 | rucaparib -0.014 | [2] -0.058 | encorafenib -0.039 | [3] 0.021 | [4] 0.019 | filanesib -0.082 | zotarolimus 0.013 | idasanutlin -0.034 | alisertib -0.073 | [5] -0.039 | gefitinib 0.031 | [6] 0.034 | lapatinib 0.013 | pictilisib -0.021
